Results published in the supplement of paper PMC10849652.
The list shows a part of the results.

Sequences of proteins named here, by UniProt entry; tags and fusion partners are left off. A change or cut given only in a name is not applied to a line headed by its entry.
UniProt Q96GF1: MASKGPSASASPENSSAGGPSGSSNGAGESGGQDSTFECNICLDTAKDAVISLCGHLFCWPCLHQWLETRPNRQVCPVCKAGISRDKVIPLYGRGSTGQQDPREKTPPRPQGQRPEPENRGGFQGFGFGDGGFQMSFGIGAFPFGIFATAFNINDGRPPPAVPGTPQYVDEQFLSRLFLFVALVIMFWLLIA
UniProt Q86UA6: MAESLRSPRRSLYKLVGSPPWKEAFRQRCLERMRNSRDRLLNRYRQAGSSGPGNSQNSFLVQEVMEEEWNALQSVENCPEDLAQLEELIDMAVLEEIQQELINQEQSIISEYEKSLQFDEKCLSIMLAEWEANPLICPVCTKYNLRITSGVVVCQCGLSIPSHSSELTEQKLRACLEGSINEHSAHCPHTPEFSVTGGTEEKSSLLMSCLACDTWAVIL
UniProt Q8WVD3: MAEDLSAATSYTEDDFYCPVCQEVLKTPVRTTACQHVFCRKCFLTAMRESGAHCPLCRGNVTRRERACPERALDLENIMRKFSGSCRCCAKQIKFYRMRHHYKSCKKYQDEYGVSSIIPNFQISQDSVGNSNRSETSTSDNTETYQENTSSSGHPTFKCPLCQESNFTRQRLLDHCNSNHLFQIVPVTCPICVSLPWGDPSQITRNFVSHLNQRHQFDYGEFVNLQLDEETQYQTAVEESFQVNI
UniProt P78317: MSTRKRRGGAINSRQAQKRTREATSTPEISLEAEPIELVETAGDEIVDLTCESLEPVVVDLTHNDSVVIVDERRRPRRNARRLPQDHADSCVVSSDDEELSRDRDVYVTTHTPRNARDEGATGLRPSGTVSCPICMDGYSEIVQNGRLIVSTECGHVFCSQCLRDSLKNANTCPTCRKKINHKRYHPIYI
UniProt Q9Y4L5, whole entry, looked up: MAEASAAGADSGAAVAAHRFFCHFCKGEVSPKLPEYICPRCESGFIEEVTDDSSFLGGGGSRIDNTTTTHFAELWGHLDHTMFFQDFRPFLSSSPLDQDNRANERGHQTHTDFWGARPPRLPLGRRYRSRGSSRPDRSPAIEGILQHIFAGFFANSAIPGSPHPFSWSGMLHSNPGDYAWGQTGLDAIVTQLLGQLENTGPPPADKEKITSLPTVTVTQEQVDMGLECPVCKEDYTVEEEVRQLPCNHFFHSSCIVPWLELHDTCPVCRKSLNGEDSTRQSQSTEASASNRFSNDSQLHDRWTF
UniProt Q9H920: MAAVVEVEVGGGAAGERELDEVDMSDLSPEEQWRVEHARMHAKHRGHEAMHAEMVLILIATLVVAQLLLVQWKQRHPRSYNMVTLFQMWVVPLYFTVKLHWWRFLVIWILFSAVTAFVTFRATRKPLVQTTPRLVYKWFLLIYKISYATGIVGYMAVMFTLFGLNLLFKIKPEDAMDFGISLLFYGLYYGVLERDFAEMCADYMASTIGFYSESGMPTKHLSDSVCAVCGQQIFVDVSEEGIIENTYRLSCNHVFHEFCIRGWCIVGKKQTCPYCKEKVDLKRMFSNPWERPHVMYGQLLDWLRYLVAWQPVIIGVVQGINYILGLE
UniProt Q9H4P4: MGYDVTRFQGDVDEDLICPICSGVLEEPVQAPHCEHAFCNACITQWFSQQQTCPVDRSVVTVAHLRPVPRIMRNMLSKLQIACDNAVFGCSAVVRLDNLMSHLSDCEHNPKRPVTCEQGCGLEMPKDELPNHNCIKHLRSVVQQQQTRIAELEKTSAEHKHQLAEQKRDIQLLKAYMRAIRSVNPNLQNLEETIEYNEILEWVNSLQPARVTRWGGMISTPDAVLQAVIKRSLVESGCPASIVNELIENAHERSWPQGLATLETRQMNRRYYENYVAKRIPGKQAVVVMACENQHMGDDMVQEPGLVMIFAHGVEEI
UniProt Q86XS8: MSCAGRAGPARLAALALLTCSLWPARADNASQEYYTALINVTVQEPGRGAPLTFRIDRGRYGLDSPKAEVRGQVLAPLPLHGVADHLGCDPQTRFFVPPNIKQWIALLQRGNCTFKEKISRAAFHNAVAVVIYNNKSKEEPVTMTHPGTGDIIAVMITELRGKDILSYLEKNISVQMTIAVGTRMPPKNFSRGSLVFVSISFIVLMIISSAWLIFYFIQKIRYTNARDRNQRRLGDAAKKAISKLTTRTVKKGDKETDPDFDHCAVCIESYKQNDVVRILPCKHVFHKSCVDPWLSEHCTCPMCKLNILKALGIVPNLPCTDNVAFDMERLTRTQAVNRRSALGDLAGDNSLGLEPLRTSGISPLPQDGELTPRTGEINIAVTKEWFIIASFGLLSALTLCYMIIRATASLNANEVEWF
UniProt Q96G75, whole entry, looked up: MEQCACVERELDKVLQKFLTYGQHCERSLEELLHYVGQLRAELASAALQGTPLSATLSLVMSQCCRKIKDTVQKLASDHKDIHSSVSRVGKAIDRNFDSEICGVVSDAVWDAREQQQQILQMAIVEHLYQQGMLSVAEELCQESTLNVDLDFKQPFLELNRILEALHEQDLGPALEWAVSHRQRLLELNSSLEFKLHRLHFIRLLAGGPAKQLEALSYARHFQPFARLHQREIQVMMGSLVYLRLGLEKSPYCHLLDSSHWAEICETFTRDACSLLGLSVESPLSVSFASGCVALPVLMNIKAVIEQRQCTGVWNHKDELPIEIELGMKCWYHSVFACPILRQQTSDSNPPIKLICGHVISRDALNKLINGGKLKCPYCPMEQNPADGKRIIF
UniProt P08922: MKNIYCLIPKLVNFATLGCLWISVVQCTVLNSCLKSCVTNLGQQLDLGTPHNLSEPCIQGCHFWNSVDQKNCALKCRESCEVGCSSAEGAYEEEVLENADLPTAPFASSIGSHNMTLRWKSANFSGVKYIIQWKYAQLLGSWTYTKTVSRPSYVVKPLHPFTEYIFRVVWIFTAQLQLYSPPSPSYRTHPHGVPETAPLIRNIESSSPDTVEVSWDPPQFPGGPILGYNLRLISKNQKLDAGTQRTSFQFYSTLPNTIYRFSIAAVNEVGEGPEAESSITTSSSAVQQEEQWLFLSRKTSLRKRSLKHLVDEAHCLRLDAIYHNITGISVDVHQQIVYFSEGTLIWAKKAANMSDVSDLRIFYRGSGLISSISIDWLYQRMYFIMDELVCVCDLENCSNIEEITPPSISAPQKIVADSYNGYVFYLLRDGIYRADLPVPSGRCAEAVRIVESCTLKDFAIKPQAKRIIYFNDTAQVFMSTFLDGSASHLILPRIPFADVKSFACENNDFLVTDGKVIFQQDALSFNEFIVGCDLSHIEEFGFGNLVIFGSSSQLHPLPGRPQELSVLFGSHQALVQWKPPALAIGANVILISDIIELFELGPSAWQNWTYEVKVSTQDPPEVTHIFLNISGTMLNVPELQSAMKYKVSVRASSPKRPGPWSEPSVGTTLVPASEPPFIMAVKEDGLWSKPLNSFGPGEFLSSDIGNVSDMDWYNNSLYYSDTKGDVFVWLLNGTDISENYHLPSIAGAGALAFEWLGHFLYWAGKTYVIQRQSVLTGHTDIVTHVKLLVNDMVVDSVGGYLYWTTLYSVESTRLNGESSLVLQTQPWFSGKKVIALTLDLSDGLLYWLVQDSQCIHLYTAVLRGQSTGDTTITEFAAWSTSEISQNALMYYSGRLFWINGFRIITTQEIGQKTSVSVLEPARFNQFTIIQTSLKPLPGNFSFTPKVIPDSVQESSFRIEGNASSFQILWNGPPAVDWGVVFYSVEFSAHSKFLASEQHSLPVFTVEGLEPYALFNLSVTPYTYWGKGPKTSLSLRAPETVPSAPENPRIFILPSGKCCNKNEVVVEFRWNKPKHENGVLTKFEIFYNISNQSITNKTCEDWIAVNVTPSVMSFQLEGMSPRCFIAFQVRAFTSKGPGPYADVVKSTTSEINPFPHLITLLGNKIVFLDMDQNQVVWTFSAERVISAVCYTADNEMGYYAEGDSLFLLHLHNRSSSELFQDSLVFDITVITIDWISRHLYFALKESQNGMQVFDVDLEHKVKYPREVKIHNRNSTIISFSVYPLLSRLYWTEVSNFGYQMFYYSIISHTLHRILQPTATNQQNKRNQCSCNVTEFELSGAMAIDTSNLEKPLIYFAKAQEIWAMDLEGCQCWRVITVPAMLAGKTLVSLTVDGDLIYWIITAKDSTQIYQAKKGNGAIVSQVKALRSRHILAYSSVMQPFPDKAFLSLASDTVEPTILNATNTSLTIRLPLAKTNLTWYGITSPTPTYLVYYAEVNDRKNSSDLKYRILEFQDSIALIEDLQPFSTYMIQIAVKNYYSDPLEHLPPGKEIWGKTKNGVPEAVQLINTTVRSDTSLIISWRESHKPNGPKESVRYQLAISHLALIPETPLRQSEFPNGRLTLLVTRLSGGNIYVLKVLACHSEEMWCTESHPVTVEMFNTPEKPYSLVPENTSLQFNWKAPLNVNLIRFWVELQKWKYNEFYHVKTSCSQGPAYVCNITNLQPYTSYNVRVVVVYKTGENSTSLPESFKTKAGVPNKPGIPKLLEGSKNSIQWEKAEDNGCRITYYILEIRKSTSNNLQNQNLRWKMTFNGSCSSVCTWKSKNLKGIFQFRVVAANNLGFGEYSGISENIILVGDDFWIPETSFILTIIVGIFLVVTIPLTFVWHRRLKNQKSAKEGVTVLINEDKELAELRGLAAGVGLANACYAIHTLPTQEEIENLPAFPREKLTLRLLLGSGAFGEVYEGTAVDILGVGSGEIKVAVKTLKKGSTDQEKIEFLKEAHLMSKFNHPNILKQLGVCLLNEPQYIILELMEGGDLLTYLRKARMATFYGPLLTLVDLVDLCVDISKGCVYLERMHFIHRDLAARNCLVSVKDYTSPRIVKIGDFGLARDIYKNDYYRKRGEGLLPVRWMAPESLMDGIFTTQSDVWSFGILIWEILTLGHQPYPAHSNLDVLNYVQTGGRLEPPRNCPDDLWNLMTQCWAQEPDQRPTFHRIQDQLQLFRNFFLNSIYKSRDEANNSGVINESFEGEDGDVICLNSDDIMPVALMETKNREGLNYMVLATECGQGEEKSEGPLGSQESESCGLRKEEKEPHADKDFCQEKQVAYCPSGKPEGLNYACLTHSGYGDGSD
UniProt P0C7M4: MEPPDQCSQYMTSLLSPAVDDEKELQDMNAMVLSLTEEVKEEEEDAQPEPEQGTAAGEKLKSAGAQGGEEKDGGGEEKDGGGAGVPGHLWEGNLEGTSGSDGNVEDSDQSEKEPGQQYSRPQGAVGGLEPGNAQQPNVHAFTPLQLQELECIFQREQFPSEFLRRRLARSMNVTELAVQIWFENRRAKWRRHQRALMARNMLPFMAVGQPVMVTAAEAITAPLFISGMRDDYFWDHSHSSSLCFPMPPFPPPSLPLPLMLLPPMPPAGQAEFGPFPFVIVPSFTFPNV
UniProt Q96E14: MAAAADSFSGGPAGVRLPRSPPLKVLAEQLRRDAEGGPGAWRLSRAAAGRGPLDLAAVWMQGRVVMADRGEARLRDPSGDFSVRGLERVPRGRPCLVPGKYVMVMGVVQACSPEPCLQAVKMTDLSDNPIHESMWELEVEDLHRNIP
UniProt Q8NCN4: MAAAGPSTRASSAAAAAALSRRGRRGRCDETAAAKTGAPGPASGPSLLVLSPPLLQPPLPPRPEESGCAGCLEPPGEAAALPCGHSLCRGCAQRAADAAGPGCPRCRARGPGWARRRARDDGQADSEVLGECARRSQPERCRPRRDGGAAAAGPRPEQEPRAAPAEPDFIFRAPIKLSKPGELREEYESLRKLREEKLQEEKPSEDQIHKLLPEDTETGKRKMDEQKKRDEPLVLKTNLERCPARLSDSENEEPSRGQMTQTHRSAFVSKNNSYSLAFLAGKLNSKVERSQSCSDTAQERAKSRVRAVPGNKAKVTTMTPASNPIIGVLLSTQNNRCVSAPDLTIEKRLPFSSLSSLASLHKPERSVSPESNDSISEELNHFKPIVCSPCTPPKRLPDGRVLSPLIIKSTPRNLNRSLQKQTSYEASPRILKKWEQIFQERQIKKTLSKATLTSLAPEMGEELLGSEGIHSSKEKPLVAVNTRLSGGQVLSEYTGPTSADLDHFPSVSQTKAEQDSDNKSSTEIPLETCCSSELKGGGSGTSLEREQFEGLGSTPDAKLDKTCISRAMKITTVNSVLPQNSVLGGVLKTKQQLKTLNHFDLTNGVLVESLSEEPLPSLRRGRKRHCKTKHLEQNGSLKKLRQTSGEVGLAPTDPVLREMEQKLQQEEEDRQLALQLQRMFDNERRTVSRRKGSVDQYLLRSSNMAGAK
UniProt P60602: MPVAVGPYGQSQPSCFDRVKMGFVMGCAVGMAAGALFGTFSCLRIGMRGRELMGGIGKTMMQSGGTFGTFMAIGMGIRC
UniProt Q9H9Y2: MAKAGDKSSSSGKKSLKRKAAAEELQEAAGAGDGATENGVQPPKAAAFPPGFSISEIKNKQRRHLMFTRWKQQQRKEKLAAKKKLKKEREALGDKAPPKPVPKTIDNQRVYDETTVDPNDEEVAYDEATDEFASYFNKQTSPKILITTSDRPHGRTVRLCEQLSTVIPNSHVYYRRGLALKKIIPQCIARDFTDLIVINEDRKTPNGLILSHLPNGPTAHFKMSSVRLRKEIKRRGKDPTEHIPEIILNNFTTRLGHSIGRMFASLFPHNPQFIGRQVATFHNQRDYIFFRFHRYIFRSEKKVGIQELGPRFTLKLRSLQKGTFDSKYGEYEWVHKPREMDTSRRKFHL

Each target was assayed with CN1CC[C@H](c2c(O)cc(O)c3c(=O)cc(-c4ccccc4Cl)oc23)[C@H](O)C1 [alvocidib] (assay: log2 fold change, soluble protein after heating vs DMSO (PISA); higher = thermal stabilisation; K562 lysate, 10 uM; active = over 0.2 and 3.5 SD of the protein, either way, in both replicates (recomputed)).
Outline: (§1)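 K562 pellets were dounce-homogenised in PBS pH 7.4 with 1 mM MgCl2, and the crude extract at 1 mg/mL protein was treated with 10 μM compound for 30 min. Aliquots were heated for 3 min across 48°C-58°C, pooled, and brought to 0.5% NP-40 at 4°C; soluble protein was the supernatant after 21,000xg for 90 min. Soluble protein was quantified by TMTpro 16plex LC-MS/MS with channel sums equalised, and reported as log2 fold change in thermal stability against DMSO controls, with values from duplicates.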

log2 fold change, inactive:
RNF167 (UniProt Q9H6Y7) 0.006
RNF185 (UniProt Q96GF1) -0.012
RPAIN isoform 8 (UniProt Q86UA6) 0.174
RNF8 (UniProt O76064) -0.086
RILPL2 (UniProt Q969X0) -0.027
RNF138 (UniProt Q8WVD3) -0.078
RNF4 (UniProt P78317) 0.053
RNF24 isoform 2 (UniProt Q9Y225) 0.079
RP9 (UniProt Q8TA86) 0.191
RNF115 (UniProt Q9Y4L5) 0.165
RNF139 (UniProt Q8WU17) -0.053
RNF121 (UniProt Q9H920) -0.04
ROGDI (UniProt Q9GZN7) 0.095
RNF41 (UniProt Q9H4P4) 0.12
RNF130 (UniProt Q86XS8) -0.013
RMND5B (UniProt Q96G75) -0.021
RNPC3 (UniProt Q96LT9) 0.012
RLF (UniProt Q13129) 0.047
ROS1 (UniProt P08922) -0.179
RNF17 (UniProt Q9BXT8) -0.006
RNF170 (UniProt Q96K19) 0.371

What follows are targets tested with CN1CCc2c(c3ccccc3n2Cc2ccc(C(=O)NO)cc2)C1 [Tubastatin A] in the same assay as above.
Outline: as §1

log2 fold change, inactive:
RNF8 (UniProt O76064) -0.067
RILPL2 (UniProt Q969X0) -0.014
RNF138 (UniProt Q8WVD3) -0.124
RHOXF2B (UniProt P0C7M4) -0.031
RMI2 (UniProt Q96E14) -0.146
RNF4 (UniProt P78317) -0.229
RNF169 (UniProt Q8NCN4) -0.058
RPL22L1 (UniProt Q6P5R6) 0.492
RPL10, A0A087WV22 -0.06
RNF121 (UniProt Q9H920) -0.026
ROGDI (UniProt Q9GZN7) -0.133
ROMO1 (UniProt P60602) -0.254
RNF41 (UniProt Q9H4P4) -0.017
RNPC3 (UniProt Q96LT9) -0.099
ROS1 (UniProt P08922) 0.148
RNASE4 (UniProt P34096) 0.053
RNF17 (UniProt Q9BXT8) 0.079
ROBO2 isoform 3 (UniProt Q9HCK4) -0.009
RIMKLB (UniProt Q9ULI2) -0.283
RPF1 (UniProt Q9H9Y2) -0.093
RHPN2 (UniProt Q8IUC4) -0.016
